Data as given in PubChem BioAssay AID1259254 (NCATS, 2017)
Here is an unselected part of about 59,000 reagents. About 1,550 of them (2.6%) count as active. 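G2 share is only a proxy for re-replication; each gene was hit by three separate siRNAs, and active genes were retested.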 Raw values vary from plate to plate and are shown uncorrected. A number with no mark means an inactive call. The numbers tell different reagents against one gene apart. No sequences are given here. The record does not give: the amount of reagent.

- Test: 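Gene knock-downs that lead to re-replication, shown by excess G2 DNA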 (primary screen)
- Cells: human HCT116 colorectal cancer cells
- Knock-down reagent: single siRNA against human genes
- Duration: 3 days
- Measured: 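Imaged Hoechst DNA stain sorts each cell into a cycle phase by DNA amount; per plate, G2 fraction set to 0% for non-targeting and 100% for GMNN siRNA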
- Scale: G2 robust z-score and G2 cells, % of GMNN control: higher = more G2 cells, more excess DNA replication; raw share of cells in G2: higher = larger share of cells with G2 DNA content
- Rule for the call: 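Active siRNAs have a G2 robust z of 5 or more median absolute deviations over the median, which in these data means about 38% or higher of GMNN control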

The opening 5 records, ahead of the listing:
Gene | reagent | G2 robust z-score | G2 cells, % of GMNN control | raw share of cells in G2 (%)
PSG5 (GeneID 5673) | 1 | 5.02 (active) | 38.3 | 21.3
PSG5 (GeneID 5673) | 2 | 0.773 | 8.4 | 7.54
PSG5 (GeneID 5673) | 3 | 0.247 | 4.7 | 5.05
SCUBE1 (GeneID 80274) | 1 | -1.8 | -9.7 | 1.53
SCUBE1 (GeneID 80274) | 2 | 0.509 | 6.55 | 5.1

Results, from the start:
Gene | reagent | G2 robust z-score | G2 cells, % of GMNN control | raw share of cells in G2 (%)
PSG5 (GeneID 5673) | 1 | 5.02 (active) | 38.3 | 21.3
PSG5 (GeneID 5673) | 2 | 0.773 | 8.4 | 7.54
PSG5 (GeneID 5673) | 3 | 0.247 | 4.7 | 5.05
SCUBE1 (GeneID 80274) | 1 | -1.8 | -9.7 | 1.53
SCUBE1 (GeneID 80274) | 2 | 0.509 | 6.55 | 5.1
SCUBE1 (GeneID 80274) | 3 | 0.477 | 6.33 | 5.62
CCDC186 (GeneID 55088) | 1 | 0.102 | 3.69 | 5.94
CCDC186 (GeneID 55088) | 2 | 3.04 | 24.4 | 14.2
CCDC186 (GeneID 55088) | 3 | -0.508 | -0.605 | 2.94
HPCA (GeneID 3208) | 1 | -0.9 | -3.36 | 1.89
HPCA (GeneID 3208) | 2 | -0.364 | 0.404 | 3.62
HPCA (GeneID 3208) | 3 | -0.0638 | 2.52 | 6.03
RAB44 (GeneID 401258) | 1 | 0.816 | 8.71 | 6.98
RAB44 (GeneID 401258) | 2 | -0.697 | -1.94 | 2.75
RAB44 (GeneID 401258) | 3 | 1.13 | 10.9 | 9.31
PRPF18 (GeneID 8559) | 1 | 0.36 | 5.5 | 7.57
PRPF18 (GeneID 8559) | 2 | 0.217 | 4.5 | 5.68
PRPF18 (GeneID 8559) | 3 | -0.171 | 1.77 | 3.97
IPO11 (GeneID 51194) | 1 | -0.948 | -3.7 | 2.38
IPO11 (GeneID 51194) | 2 | -0.6 | -1.25 | 5.38
IPO11 (GeneID 51194) | 3 | 0.981 | 9.87 | 7.89
ACBD3 (GeneID 64746) | 1 | 1.65 | 14.5 | 10.9
ACBD3 (GeneID 64746) | 2 | 0.542 | 6.78 | 7.65
ACBD3 (GeneID 64746) | 3 | 0.0665 | 3.44 | 3.6
HOXC5 (GeneID 3222) | 1 | 1.96 | 16.7 | 11.1
HOXC5 (GeneID 3222) | 2 | 1.43 | 13 | 10.6
HOXC5 (GeneID 3222) | 3 | 0.237 | 4.63 | 5.9
SLC39A6 (GeneID 25800) | 1 | -0.796 | -2.63 | 3.31
SLC39A6 (GeneID 25800) | 2 | -0.0359 | 2.71 | 4.88
SLC39A6 (GeneID 25800) | 3 | 0.747 | 8.22 | 9.89
ZNF503 (GeneID 84858) | 1 | 0.636 | 7.44 | 7.24
ZNF503 (GeneID 84858) | 2 | -0.623 | -1.42 | 2.56
ZNF503 (GeneID 84858) | 3 | 0.0814 | 3.54 | 4.05
REEP3 (GeneID 221035) | 1 | -0.295 | 0.892 | 3.9
REEP3 (GeneID 221035) | 2 | -0.604 | -1.28 | 2.69
REEP3 (GeneID 221035) | 3 | -0.896 | -3.34 | 2.13
C15orf61 (GeneID 145853) | 1 | 0.869 | 9.08 | 6.87
C15orf61 (GeneID 145853) | 2 | 0.908 | 9.35 | 5.8
C15orf61 (GeneID 145853) | 3 | -0.507 | -0.599 | 2.86
GRM2 (GeneID 2912) | 1 | 4.83 | 36.9 | 19.1
GRM2 (GeneID 2912) | 2 | 4.87 | 37.3 | 17.5
GRM2 (GeneID 2912) | 3 | 7.38 (active) | 54.9 | 20.1
AGRP (GeneID 181) | 1 | 1.41 | 12.9 | 9.1
AGRP (GeneID 181) | 2 | -0.153 | 1.89 | 5.75
AGRP (GeneID 181) | 3 | -0.0903 | 2.33 | 4.86
DTX4 (GeneID 23220) | 1 | -0.678 | -1.8 | 2.93
DTX4 (GeneID 23220) | 2 | -0.836 | -2.92 | 4.69
DTX4 (GeneID 23220) | 3 | 2.69 | 21.9 | 12.5
UBQLN2 (GeneID 29978) | 1 | -0.589 | -1.18 | 3.41
UBQLN2 (GeneID 29978) | 2 | 0.885 | 9.2 | 8.03
UBQLN2 (GeneID 29978) | 3 | 0.958 | 9.71 | 6.31
CHST14 (GeneID 113189) | 1 | 0.056 | 3.36 | 7.23
CHST14 (GeneID 113189) | 2 | -0.0628 | 2.53 | 6.05
CHST14 (GeneID 113189) | 3 | -0.474 | -0.368 | 4.34
COL5A2 (GeneID 1290) | 1 | -0.665 | -1.71 | 4.5
COL5A2 (GeneID 1290) | 2 | 0.621 | 7.33 | 6.77
COL5A2 (GeneID 1290) | 3 | -0.884 | -3.26 | 2.25
SV2B (GeneID 9899) | 1 | -0.582 | -1.12 | 4.78
SV2B (GeneID 9899) | 2 | 1.09 | 10.6 | 9.06
SV2B (GeneID 9899) | 3 | -0.74 | -2.24 | 2.43
GPC5 (GeneID 2262) | 1 | -0.757 | -2.36 | 4.19
GPC5 (GeneID 2262) | 2 | -1.14 | -5.06 | 2.24
GPC5 (GeneID 2262) | 3 | 1.19 | 11.3 | 7.97
KLC1 (GeneID 3831) | 1 | -0.692 | -1.9 | 4.35
KLC1 (GeneID 3831) | 2 | 0.266 | 4.84 | 7.52
KLC1 (GeneID 3831) | 3 | -0.133 | 2.03 | 4.95
PNPLA6 (GeneID 10908) | 1 | -0.641 | -1.54 | 3.34
PNPLA6 (GeneID 10908) | 2 | -0.528 | -0.749 | 5.37
PNPLA6 (GeneID 10908) | 3 | -0.781 | -2.52 | 5.48
